Experimental data published in PubChem BioAssay AID2685 (National Center for Advancing Translational Sciences (NCATS), 2010).
Hit rate of the full screen: of about 320,000 compounds, about 2,100 (0.66%) were called active. Inconclusive means that the source gave no clear call. Such entries were picked first, then a sample of the others. The call rests on the fitted dose curve; in most records, active means well fitted inhibition curve with a large enough effect in the signal ratio, with a control signal flat (not every such curve was filed as active); inconclusive means small, poorly fitted or top-dose-only effect, or effect the other way, or a change in a side signal; inactive means flat fitted curve, though single readings scatter; the % refers to the signal ratio. Where the call is inconclusive, the potency comes from a doubtful curve fit.

Assay: qHTS Assay for Lipid Storage Modulators in Drosophila S3 Cells
Conditions: BODIPY lipid droplet fluorescence, 18-24 h, cells fed with added oleic acid; lipid storage change, negative = inhibition: at 46.1 µM (top of the series) unless noted
Method in brief: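 Drosophila S3 cells loaded with oleic acid (400 uM, as added) and compounds at several concentrations; lipid droplets imaged by 488-nm laser-scanning cytometry, 500–530 nm intensity and object ratio to cell channel. Percent activity normalized to 20 uM Triacsin C.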
On the % scale 0 is the no-effect control and ±100 the full control effect; potency means the concentration at half of the fitted maximal effect.

Lipid storage change, negative = inhibition, inconclusive:
CC1CCCN(CC(O)COc2ccc(S(=O)(=O)N3CCCC3)cc2[N+](=O)[O-])C1 (stereo not drawn) 31%
O=S(=O)(c1cccc(S(=O)(=O)N2CCC(N3CCCCC3)CC2)c1)N1CCOCC1 -5.79%
O=C1CCCc2nc(N3CCN(C(c4ccccc4)c4ccccc4)CC3)ncc21 -6.41%
CCOc1ccccc1NC(=O)CCCCCN1C(=O)[C@@H]2Cc3ccccc3CN2C1=O 50.6%
Cc1ccccc1Cn1c(=O)n(CCC(=O)NCc2ccc3c(c2)OCO3)c(=O)c2ccccc21 -32.2%
CC(=O)NC1=NC(=O)/C(=C/c2cn(C(C)=O)nc2-c2ccccc2)S1 6.71%
Cc1cc(C)n2nc(C(=O)OCC(=O)Nc3ccc4c(c3)OCO4)nc2n1 -38.3%
NS(=O)(=O)c1ccc(CCNc2nc3c(-c4cccc(F)c4)nnn3c3ccccc23)cc1 53.9%
CN(C(=O)CN1CCN(c2ccccc2F)CC1)C1CCCc2ccccc21 (stereo not drawn) 20.1%
Cc1ccc2oc(=O)n(Cc3ccc(OC(C)C)cc3)c2c1 -9.52%
O=C(NC1=NCCS1)C1CCN(S(=O)(=O)c2ccccc2C(F)(F)F)CC1 -0.593%
COc1cc([N+](=O)[O-])cc2sc(NC(=O)c3c(F)cccc3F)nc12 0.0865%
COc1ccccc1C(=O)Nc1onc(C)c1C#N 15.2%
Cc1ccc(S(=O)(=O)n2ccc3c(OCCOCCSCC(NC(=O)OC(C)(C)C)C(=O)O)cccc32)cc1 (stereo not drawn) -11.3%
CCOC(=O)C1CCCN(CC(=O)NC2=Nc3ccccc3N=C(C)C2c2ccccc2)C1 (stereo not drawn) 50.2%
CC(C(=O)OCC(=O)c1ccc([N+](=O)[O-])cc1)N1C(=O)C2C3C=CC(C3)C2C1=O (stereo not drawn) -68.1%
C/C(=N\OC(=O)NC(C)C)c1sc(-c2ccccc2)nc1C -26.9%
COc1cccc(N2CCN(CC(=O)NCc3ccccc3)CC2)c1 19.1%
C[C@@H](C(=O)NCc1ccccc1)[C@@H]1C[C@@]1(C)[C@@H](NC(=O)OCc1ccccc1)c1ccccc1 39.3%
Cc1nn(C(C)C)c(C)c1CN1CCCC(C(=O)c2cccc(OC(C)C)c2)C1 (stereo not drawn) 23.9%
CN1CCc2c(c3ccccc3n2Cc2ccccc2)C1 64.1%
CCOC(=O)C(=CN(CCc1ccccc1)CC(=O)OC)C(=O)OCC 27%
CCCCCCCCCCCCOC1OC(CO)C(O)C(O)C1NC(C)=O (stereo not drawn) 33.7% [activator]
O=C(NNC(=O)c1csc(N2CCOCC2)n1)c1cccnc1 23%
CN1CCN(C(=O)CSc2ccc(C(F)(F)F)cc2[N+](=O)[O-])CC1 15.4%
COc1ccc(/C=N/NC(N)=S)cc1 21.9%
Cc1noc(C)c1COC(=O)c1cc(F)c(F)cc1Cl 15.5%
O=C(Nc1ccc(Cl)c(Cl)c1)c1cccc(S(=O)(=O)NCc2cccnc2)c1 23.8%
O=C(Cc1c(F)cccc1Cl)NCC(=O)OCc1ccccc1
Cc1ccccc1Nc1nnc(SCC(=O)NCc2ccco2)s1 15.5%

Lipid storage change, negative = inhibition, inactive:
O=S(=O)(Nc1nnc(C2CCCCC2)s1)c1ccc(F)cc1 -48.6%

Potency, inconclusive:
COc1ccc2cc(C(=O)O)ccc2c1 6.51 µM [falling, single point]
O=C(OCC(=O)N1CCN(C(=O)c2ccco2)CC1)c1sc2ccccc2c1Cl 6.51 µM [falling, single point]
Cc1ccc(C)c(S(=O)(=O)N2CC(=O)Nc3ccccc32)c1 6.51 µM [activator, single point]
Cc1ccc(S(=O)(=O)c2c[nH]c3cc4c(cc3c2=O)OCO4)cc1 1.64 µM [rising, full curve]
CCOc1ccc2[nH]c(C)c(CN(C)C)c(=O)c2c1 0.164 µM [falling, full curve]
CCOC(=O)C1CCN(C(=O)/C(=C/c2ccccc2)NC(=O)c2ccccc2)CC1 6.51 µM [falling, single point]
Cc1ccc(O)c(Nc2c3ccccc3nc3ccccc23)c1 29.1 µM [falling, single point]
CCOC(=O)C1=C(C)N(CCCCCC(=O)O)C(=O)NC1c1ccc(Br)cc1 (stereo not drawn) 2.59 µM [falling, full curve, poor fit]
COCCN(C(=O)COC(=O)/C=C/c1ccco1)c1c(N)n(Cc2ccccc2)c(=O)[nH]c1=O 29.1 µM [falling, single point]
O=C(OCC(=O)c1c[nH]c2ccccc12)c1cccc([N+](=O)[O-])c1 0.0046 µM [activator, full curve, poor fit]
CCNC(=O)CC1C(=O)N(c2ccc(C)cc2)C(=O)N1Cc1ccccn1 (stereo not drawn) 0.164 µM [falling, full curve, poor fit]
Nc1c(C(=O)CSc2nc3ccccc3o2)c(=O)[nH]c(=O)n1C1CC1 3.66 µM [falling, partial curve]
O=C(OCc1cccc(C(F)(F)F)c1)c1ccc[nH]c1=O 1.46 µM [falling, partial curve]
COc1ccc(NS(=O)(=O)c2ccc3[nH]c(=O)[nH]c3c2)cc1OC 0.164 µM [activator, full curve, poor fit]

Quoted at random: 2 records from the list, in no set order.
Potency, inconclusive:
O=C(OCC(=O)c1c[nH]c2ccccc12)c1cccc([N+](=O)[O-])c1 0.0046 µM [activator, full curve, poor fit]
CCOC(=O)C1=C(C)N(CCCCCC(=O)O)C(=O)NC1c1ccc(Br)cc1 (stereo not drawn) 2.59 µM [falling, full curve, poor fit]

Following part.

Potency, active:
O=[N+]([O-])c1ccccc1/C=N/N1CCN(Cc2ccccc2)CC1 1.3 µM
CN1CCN(C(=O)/C(=C\c2ccccc2)c2ccccc2)CC1 18.4 µM
Cc1csc(NC(=O)c2ccc(Cn3nc(C)c(Br)c3C)o2)n1 7.31 µM
